Laboratory results taken from article doi:10.64898/2025.12.13.694125.
These are yes or no findings as the source states them, for the method shown. Binding seen in cells or lysates may run through a third protein. Some entries that bind do so weakly or less than the wild type.

Sequences of proteins named here, by UniProt entry; tags and fusion partners are left off. Residues count along the entry.
UniProt Q03265, residues 44-553: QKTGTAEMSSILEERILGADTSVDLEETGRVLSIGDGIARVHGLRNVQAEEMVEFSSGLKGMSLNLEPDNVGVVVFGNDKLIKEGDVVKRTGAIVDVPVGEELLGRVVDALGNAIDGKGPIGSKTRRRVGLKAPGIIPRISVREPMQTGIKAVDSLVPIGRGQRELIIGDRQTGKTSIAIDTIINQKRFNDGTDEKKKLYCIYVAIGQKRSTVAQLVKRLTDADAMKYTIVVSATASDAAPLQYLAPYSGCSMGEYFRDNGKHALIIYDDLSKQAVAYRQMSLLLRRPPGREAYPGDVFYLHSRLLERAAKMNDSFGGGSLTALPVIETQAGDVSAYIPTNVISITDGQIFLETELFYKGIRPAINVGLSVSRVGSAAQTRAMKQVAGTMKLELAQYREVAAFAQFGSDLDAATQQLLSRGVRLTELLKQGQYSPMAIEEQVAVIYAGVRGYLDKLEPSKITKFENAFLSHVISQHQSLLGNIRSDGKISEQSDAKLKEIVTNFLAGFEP
UniProt P56480, residues 47-529: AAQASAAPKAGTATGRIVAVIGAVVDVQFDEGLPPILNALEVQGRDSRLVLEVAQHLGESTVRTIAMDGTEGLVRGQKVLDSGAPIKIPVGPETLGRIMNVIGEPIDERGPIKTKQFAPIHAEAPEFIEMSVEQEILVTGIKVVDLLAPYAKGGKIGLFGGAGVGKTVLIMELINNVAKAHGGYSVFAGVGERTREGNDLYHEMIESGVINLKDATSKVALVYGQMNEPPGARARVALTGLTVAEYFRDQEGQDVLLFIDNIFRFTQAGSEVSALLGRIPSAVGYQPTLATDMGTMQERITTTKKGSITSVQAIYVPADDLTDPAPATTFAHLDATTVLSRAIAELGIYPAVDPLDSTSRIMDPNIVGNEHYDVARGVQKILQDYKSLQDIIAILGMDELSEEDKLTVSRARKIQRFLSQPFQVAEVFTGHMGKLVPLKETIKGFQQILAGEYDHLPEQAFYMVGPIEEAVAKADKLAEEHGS
UniProt Q8K2B3, residues 43-664: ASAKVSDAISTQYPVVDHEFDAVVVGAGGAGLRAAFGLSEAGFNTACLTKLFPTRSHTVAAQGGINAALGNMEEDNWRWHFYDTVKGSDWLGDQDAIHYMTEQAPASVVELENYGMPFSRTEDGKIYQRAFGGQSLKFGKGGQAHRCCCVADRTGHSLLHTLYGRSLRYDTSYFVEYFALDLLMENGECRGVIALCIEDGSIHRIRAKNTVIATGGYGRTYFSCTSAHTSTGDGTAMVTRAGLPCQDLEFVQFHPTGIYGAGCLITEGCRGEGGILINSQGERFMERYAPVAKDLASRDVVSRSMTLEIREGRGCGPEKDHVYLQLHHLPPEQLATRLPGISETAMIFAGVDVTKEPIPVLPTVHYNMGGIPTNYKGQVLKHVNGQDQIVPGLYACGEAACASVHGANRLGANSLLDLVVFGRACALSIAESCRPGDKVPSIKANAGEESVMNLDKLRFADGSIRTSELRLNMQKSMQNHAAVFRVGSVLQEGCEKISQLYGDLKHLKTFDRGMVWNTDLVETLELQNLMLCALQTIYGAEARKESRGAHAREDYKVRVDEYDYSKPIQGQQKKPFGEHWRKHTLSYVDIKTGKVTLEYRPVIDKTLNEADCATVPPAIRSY

T1: peripheral stalk subunit ATP5J (mouse (endogenous in heart mitochondria)) (UniProt P97450)
T1 sequence: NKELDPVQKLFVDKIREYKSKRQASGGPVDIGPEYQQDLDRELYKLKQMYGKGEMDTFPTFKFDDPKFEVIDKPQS

T2: ATP synthase subunit ATPG (mouse (endogenous in heart mitochondria)) (UniProt Q91VR2)
T2 sequence: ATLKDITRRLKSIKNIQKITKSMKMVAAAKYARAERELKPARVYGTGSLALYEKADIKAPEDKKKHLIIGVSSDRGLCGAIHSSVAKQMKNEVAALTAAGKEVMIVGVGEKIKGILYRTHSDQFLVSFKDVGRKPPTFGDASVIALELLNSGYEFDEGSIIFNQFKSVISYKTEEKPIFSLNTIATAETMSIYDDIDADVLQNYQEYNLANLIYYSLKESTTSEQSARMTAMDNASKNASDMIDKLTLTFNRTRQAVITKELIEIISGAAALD

T3: citrate synthase (CISY) (mouse (endogenous in heart mitochondria)) (UniProt Q9CZU6)
T3 sequence: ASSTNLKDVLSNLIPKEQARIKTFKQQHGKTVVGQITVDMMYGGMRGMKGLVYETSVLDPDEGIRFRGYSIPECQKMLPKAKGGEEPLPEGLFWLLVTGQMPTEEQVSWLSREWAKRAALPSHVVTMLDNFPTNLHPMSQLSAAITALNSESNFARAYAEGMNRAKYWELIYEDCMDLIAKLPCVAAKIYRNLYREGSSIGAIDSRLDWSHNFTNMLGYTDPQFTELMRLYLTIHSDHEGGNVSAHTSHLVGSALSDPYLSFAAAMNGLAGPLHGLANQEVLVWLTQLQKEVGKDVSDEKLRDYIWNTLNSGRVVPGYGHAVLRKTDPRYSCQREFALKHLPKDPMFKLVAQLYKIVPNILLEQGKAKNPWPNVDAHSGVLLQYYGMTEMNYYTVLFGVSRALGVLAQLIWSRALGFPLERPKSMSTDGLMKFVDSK

T4: malate dehydrogenase (MDHM) (mouse (endogenous in heart mitochondria)) (UniProt P08249)
T4 sequence: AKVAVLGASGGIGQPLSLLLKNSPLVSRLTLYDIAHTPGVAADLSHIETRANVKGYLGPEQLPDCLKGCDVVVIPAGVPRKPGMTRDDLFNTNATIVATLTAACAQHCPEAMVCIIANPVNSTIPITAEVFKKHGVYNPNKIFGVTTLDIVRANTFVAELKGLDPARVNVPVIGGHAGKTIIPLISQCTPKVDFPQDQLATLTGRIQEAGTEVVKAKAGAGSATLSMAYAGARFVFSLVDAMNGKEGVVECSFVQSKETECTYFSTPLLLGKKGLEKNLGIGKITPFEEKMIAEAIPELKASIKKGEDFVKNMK


Legend:
Assay in all cases: cross-linking
[1] = molecular target: ATP synthase F1 catalytic head α subunit (ATPA) (mouse (endogenous in heart mitochondria)) (UniProt Q03265)
[2] = molecular target: ATP synthase F1 catalytic head β subunit (ATPB) (mouse (endogenous in heart mitochondria)) (UniProt P56480)
[3] = molecular target: T1, peripheral stalk subunit ATP5J (mouse (endogenous in heart mitochondria))
[4] = molecular target: T2, ATP synthase subunit ATPG (mouse (endogenous in heart mitochondria))
[5] = molecular target: ATPase inhibitory factor 1 (ATIF1) (mouse (endogenous in heart mitochondria)) (UniProt O35143)
[6] = molecular target: SDHA (mouse (endogenous in heart mitochondria)) (UniProt Q8K2B3)
[7] = molecular target: T3, citrate synthase (CISY) (mouse (endogenous in heart mitochondria))
[8] = molecular target: T4, malate dehydrogenase (MDHM) (mouse (endogenous in heart mitochondria))

binding [1]	binding [2]	binding [3]	binding [4]	binding [5]	binding [6]	binding [7]	binding [8]	Binder
binds	binds							malate dehydrogenase (MDHM) (enzyme, UniProt P08249 25-338) AKVAVLGASGGIGQPLSLLLKNSPLVSRLTLYDIAHTPGVAADLSHIETRANVKGYLGPEQLPDCLKGCDVVVIPAGVPRKPGMTRDDLFNTNATIVATLTAACAQHCPEAMVCIIANPVNSTIPITAEVFKKHGVYNPNKIFGVTTLDIVRANTFVAELKGLDPARVNVPVIGGHAGKTIIPLISQCTPKVDFPQDQLATLTGRIQEAGTEVVKAKAGAGSATLSMAYAGARFVFSLVDAMNGKEGVVECSFVQSKETECTYFSTPLLLGKKGLEKNLGIGKITPFEEKMIAEAIPELKASIKKGEDFVKNMK
		binds						FO membrane subunit ATP8 (protein, UniProt P03930 1-67) MPQLDTSTWFITIISSMITLFILFQLKVSSQTFPLAPSPKSLTTMKVKTPWELKWTKIYLPHSLPQQ
	binds		binds	binds	binds	binds	binds	ATPase inhibitory factor 1 (ATIF1) (protein, UniProt O35143 26-106) VSDSSDSMDTGAGSIREAGGAFGKREKAEEDRYFREKTKEQLAALRKHHEDEIDHHSKEIERLQKQIERHKKKIQQLKNNH
